Assay results reported in patent US9790253B2, “OSW-1 analogs and conjugates, and uses thereof” (priority 2011, dated 2017).
Some results were stated once for a whole list of compounds, not compound by compound. At least one compound was matched to its structure with a doubt left. Some ranges recur; such a range may be that of the whole group of compounds.

Assays:
[1] = test system: HeLa cells overexpressing OSBP1-myc-his or ORP4L-myc-his; test: Overexpression-viability assay, OSBP1-myc-his or ORP4L-myc-his; format: cell-based; conditions: 48 h, vs lacZ
Procedure: Overexpression-viability assays with wild-type and mutant OSBP/ORP4L constructs were carried out by transfecting HeLa cells with the appropriate plasmids using Lipofectamine™ LTX with PLUS™ reagent (Invitrogen) as instructed, and after 8 h of transfection, the cells were re-plated for the cell viability assay, performed as described above. Expression levels were evaluated by immunoblotting at the time of dosing.

HCT-116 cells = test: Growth inhibition with 25-OHC co-administration; format: cell-based, human
Procedure: 25-OHC (11) is a high-affinity ligand of OSBP1 and ORP4L that is not cytotoxic at concentrations up to 10 μM. Example 1 established that the ORPphilins compete with 25-OHC for binding to OSBP1 and ORP4L (FIG. 2D,E). Therefore, if OSBP1 and ORP4L mediate the biological activities of these compounds, co-administration of sub-lethal doses of 25-OHC with the ORPphilins should inhibit binding of the ORPphilins to OSBP1 and ORP4L, thereby desensitizing cells to the cytotoxic effects of the ORPphilins.

NCI-60 = conditions: read-out: mean GI50 in the NCI's 60-cell-line anticancer assay; cited from earlier work

| Molecule | desensitization by overexpression of OSBP1-myc-his or ORP4L-myc-his [1] | growth inhibition, compound alone (HCT-116 cells; 250 nM) [%] | growth inhibition, compound alone (HCT-116 cells; 10 nM) [%] | GI50 (NCI-60) [µM] |
| --- | --- | --- | --- | --- |
| C[C@@H]1[C@]2(O[C@H]3C=C4[C@@H]5CC[C@H]6Cc7nc8c(nc7C[C@]6(C)[C@H]5C[C@@H](O)[C@]4(C)[C@]31O)C[C@@H]1CC[C@H]3C4=CC[C@@H]5[C@H](C)[C@@]6(OC[C@]45C(=O)C[C@@H]3[C@@]1(C)C8)OC(C)(C)C[C@H]6O)O[C@](C)(CO)C[C@H]2O [cephalostatin 1, Cephalostatin 1] | 2-5 fold | > 75 |  |  |
| COc1ccc(C(=O)O[C@H]2[C@H](O[C@@H]3[C@@H](OC(C)=O)[C@H](O[C@H]4C[C@H]5[C@@H]6CC=C7C[C@@H](O)CC[C@]7(C)[C@H]6CC[C@]5(C)[C@@]4(O)[C@H](C)C(=O)CCC(C)C)OC[C@@H]3O)OC[C@@H](O)[C@@H]2O)cc1 [OSW-1] | 2-5 fold |  | > 75 |  |
| Schweinfurthin D |  |  |  | < 1 |
| schweinfurthin A | 2-5 fold |  |  |  |
| COc1cc(/C=C/c2cc(O)c(C/C=C(\C)CCC=C(C)C)c(O)c2)cc2c1O[C@]1(C)C[C@@H](O)[C@@H](O)C(C)(C)[C@H]1C2 [Schweinfurthin B, schweinfurthin B] |  |  |  | < 1 |
